The list shows a part of the results.
compound: COc1ccc(Cn2ccc3cc(C)c(C(=O)NO)cc32)cc1; experiment: dose-dependent thermal stabilisation call (2D-TPP, DLPTP, 10% FDR) (binary (1 = stabilised)); higher = stabilised by the compound; settings: system: HL-60 intact cells; concentration range 0.04-10 µM
Procedure: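 2D thermal proteome profiling in intact HL-60 cells treated with BRD-3811 (0, 0.04, 0.29, 2, 10 uM) for 90 min at 37 C, then heated 3 min at one of 12 temperatures (42-63.9 C). Soluble protein was quantified by TMT10 MS. The value is the DLPTP call of the paper: dose-dependent thermal stabilisation over all temperatures at 10% FDR (F-test of a dose-response against a flat model); one experiment, one call per tested protein.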

The chains behind the UniProt entries cited, without tags or fusion partners. Where a name states a change or a piece, a line headed by the entry shows the natural chain unless it says otherwise.
UniProt O15315: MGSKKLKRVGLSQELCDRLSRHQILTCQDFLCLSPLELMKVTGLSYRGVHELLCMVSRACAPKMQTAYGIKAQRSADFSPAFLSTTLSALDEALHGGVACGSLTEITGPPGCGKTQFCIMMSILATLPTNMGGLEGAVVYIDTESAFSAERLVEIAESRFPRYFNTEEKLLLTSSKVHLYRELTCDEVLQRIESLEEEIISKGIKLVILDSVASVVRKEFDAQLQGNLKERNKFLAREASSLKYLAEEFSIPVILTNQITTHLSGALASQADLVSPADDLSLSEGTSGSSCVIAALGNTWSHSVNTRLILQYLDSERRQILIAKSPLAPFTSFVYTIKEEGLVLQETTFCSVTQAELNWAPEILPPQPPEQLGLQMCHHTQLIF
UniProt Q99496: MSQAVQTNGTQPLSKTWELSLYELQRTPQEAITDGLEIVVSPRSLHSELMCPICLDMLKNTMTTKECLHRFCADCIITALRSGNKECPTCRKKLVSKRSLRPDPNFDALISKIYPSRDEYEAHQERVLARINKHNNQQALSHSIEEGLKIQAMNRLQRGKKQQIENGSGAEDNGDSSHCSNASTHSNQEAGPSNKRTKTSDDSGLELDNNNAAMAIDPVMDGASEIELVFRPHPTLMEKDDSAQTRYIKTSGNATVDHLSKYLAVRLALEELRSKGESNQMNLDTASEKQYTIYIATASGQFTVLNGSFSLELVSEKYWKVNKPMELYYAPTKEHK
UniProt Q8TB72: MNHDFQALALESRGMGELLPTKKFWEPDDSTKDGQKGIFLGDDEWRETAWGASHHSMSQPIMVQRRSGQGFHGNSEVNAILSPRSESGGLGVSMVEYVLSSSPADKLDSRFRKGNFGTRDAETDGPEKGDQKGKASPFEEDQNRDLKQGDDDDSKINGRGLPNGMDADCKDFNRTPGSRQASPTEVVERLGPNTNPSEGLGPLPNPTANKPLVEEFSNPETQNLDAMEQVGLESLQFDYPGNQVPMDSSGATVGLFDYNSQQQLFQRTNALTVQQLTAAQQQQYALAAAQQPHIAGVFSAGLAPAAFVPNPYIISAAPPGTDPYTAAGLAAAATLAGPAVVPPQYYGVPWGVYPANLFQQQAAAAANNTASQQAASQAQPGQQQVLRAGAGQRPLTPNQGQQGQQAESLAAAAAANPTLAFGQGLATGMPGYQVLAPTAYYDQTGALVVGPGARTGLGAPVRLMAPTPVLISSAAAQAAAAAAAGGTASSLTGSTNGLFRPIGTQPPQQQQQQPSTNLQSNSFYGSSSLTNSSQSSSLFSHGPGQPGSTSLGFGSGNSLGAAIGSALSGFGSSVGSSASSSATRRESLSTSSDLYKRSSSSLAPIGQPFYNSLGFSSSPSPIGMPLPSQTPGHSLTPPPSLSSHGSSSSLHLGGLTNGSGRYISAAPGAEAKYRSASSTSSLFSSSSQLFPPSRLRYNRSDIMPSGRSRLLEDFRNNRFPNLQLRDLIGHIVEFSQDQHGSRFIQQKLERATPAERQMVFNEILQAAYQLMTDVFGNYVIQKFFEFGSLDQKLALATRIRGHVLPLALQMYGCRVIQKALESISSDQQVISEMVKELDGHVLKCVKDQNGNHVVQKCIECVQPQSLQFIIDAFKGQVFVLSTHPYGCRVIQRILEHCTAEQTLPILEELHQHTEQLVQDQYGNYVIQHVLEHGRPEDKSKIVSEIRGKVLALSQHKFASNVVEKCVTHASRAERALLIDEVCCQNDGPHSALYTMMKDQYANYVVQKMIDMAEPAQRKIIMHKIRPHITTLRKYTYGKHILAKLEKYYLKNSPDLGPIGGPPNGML
UniProt P12724: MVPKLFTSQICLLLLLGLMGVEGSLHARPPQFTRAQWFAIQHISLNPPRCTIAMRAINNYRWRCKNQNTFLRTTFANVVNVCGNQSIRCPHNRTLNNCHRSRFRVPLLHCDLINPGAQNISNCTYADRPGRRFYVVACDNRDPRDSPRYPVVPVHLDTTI
UniProt O15258: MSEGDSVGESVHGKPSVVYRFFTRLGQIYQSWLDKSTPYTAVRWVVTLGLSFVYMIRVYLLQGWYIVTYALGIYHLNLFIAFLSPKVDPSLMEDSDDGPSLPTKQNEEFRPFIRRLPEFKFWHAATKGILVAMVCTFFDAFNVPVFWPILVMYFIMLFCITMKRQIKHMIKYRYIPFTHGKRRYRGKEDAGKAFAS
UniProt Q9Y580: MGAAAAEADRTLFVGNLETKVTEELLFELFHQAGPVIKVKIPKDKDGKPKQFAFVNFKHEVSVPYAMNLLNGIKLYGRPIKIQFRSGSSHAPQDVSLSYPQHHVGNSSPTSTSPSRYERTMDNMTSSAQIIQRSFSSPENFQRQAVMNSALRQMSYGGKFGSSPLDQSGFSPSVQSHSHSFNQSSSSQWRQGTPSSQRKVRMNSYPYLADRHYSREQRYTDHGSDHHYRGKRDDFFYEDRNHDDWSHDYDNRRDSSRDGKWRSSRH
UniProt Q14498: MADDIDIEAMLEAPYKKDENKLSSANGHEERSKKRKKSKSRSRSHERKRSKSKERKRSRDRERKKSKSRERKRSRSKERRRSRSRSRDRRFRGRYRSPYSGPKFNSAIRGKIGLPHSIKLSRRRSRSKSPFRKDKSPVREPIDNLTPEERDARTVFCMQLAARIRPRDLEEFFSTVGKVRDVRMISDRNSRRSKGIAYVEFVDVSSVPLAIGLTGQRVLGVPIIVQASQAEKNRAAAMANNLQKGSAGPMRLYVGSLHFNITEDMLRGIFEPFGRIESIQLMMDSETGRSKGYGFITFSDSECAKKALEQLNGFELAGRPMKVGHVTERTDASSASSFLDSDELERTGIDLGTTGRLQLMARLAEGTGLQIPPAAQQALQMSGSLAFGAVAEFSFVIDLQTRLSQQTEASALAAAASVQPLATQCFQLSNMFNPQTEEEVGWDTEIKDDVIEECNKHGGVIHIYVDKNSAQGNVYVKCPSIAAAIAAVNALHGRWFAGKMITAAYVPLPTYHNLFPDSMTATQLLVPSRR
UniProt P10586, whole entry: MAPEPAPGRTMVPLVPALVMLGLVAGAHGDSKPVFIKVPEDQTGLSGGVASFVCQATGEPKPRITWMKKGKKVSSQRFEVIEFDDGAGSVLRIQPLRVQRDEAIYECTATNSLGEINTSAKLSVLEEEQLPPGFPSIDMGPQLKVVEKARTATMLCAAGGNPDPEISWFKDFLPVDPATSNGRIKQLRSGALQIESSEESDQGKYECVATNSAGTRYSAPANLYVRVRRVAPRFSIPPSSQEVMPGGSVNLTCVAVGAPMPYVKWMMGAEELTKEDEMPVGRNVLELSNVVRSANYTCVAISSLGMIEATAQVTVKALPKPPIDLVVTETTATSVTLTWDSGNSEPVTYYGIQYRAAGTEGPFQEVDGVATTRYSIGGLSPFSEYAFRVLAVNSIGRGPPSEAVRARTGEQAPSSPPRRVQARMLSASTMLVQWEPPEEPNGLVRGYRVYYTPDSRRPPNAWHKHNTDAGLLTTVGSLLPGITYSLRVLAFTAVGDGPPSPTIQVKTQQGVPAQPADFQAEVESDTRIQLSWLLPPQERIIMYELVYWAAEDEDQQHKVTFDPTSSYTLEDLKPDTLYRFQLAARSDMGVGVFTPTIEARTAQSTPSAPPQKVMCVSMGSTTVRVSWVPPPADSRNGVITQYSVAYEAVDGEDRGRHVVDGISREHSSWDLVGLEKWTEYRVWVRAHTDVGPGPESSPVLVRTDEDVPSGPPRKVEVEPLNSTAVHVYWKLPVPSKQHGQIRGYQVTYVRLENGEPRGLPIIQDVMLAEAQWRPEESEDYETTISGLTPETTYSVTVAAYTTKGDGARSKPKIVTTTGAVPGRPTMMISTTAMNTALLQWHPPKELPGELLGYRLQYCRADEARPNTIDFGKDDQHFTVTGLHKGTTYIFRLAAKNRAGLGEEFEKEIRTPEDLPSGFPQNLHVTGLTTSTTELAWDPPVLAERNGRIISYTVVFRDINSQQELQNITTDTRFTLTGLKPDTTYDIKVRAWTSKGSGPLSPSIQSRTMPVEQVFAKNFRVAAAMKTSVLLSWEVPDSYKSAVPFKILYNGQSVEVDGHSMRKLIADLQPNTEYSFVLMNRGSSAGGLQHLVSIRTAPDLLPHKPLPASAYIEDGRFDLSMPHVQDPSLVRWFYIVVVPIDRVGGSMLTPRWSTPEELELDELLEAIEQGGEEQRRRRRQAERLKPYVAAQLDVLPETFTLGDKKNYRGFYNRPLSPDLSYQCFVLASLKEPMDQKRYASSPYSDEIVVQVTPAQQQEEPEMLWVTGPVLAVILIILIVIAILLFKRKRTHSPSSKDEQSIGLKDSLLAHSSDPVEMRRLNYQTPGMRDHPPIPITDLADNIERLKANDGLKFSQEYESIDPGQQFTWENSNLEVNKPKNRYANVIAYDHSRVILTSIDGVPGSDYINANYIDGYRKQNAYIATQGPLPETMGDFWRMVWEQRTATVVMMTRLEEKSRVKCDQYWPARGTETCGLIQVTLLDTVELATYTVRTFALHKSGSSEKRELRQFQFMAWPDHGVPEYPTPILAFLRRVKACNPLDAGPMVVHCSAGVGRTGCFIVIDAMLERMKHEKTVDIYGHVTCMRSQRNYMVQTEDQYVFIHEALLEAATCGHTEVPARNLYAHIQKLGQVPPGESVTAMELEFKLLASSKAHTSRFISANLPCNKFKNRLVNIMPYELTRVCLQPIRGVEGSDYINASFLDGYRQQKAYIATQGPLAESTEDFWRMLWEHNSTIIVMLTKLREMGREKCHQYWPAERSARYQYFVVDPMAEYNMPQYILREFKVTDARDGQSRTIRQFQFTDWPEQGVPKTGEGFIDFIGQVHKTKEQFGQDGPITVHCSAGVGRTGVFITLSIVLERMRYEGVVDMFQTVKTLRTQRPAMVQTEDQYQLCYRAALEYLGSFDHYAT
UniProt P84095: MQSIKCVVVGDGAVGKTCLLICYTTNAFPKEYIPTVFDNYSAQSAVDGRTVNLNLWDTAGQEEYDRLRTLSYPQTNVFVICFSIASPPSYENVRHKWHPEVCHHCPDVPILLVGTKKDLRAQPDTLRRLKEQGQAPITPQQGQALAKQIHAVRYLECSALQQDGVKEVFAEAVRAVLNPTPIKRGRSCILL
UniProt Q01201: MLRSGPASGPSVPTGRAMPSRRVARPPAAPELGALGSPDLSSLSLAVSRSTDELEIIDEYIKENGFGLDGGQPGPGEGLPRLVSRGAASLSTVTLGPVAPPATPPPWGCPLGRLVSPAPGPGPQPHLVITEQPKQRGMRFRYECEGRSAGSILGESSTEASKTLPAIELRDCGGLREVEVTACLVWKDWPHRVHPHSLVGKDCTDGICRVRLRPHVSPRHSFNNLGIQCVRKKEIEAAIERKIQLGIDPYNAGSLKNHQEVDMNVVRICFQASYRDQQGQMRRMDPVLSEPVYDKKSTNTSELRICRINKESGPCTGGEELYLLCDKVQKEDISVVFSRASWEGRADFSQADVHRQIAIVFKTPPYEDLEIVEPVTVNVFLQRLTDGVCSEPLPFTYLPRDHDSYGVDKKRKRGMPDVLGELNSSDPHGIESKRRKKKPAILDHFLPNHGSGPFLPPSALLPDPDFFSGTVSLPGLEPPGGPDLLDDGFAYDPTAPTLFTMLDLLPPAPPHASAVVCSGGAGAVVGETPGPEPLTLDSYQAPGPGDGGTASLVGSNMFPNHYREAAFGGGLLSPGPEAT
UniProt Q15293: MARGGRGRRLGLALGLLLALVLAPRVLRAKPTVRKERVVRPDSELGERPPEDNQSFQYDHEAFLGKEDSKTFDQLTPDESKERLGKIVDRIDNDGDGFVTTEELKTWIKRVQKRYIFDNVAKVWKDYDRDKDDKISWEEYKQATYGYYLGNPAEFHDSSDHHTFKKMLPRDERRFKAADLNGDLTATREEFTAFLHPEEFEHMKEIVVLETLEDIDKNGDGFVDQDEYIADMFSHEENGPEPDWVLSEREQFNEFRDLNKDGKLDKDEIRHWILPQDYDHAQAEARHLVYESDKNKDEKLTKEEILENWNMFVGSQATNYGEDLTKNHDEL
UniProt Q92696: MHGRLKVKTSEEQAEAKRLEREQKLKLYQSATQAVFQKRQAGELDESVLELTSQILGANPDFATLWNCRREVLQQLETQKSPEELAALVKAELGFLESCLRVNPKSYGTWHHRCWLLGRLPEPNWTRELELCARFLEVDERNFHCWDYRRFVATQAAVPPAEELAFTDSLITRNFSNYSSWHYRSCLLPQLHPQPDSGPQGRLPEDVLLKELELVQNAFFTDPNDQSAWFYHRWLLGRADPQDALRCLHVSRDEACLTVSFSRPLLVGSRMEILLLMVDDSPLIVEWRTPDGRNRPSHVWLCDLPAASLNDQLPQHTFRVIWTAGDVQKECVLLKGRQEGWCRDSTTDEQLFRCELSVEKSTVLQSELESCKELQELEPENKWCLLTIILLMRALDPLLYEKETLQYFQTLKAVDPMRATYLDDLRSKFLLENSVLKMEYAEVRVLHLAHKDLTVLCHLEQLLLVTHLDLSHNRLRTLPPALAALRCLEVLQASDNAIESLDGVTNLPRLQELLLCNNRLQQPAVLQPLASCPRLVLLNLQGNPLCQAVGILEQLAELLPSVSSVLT

Target	dose-dependent thermal stabilisation call
RAC3 (UniProt P60763)	inactive: 0
RASA1 (UniProt P20936)	inactive: 0
RAD51L1 (UniProt O15315)	inactive: 0
RFC2 (UniProt P35250)	inactive: 0
RNF2 (UniProt Q99496)	inactive: 0
RCC1 (UniProt P18754)	inactive: 0
RFWD2 (UniProt Q8NHY2)	inactive: 0
PURA (UniProt Q00577)	inactive: 0
RAB23 (UniProt Q9ULC3)	inactive: 0
RBCK1 (UniProt Q9BYM8)	inactive: 0
RAD1 (UniProt O60671)	inactive: 0
RETSAT (UniProt Q6NUM9)	inactive: 0
RCE1 (UniProt Q9Y256)	inactive: 0
RBM34 (UniProt P42696)	inactive: 0
RASSF1 (UniProt Q9NS23)	inactive: 0
PUM2 (UniProt Q8TB72)	inactive: 0
RNASE3 (UniProt P12724)	inactive: 0
RBM4B (UniProt Q9BQ04)	inactive: 0

Part of the list above, as labelled records:
RAD1 (UniProt O60671)
  dose-dependent thermal stabilisation call: inactive: 0
RETSAT (UniProt Q6NUM9)
  dose-dependent thermal stabilisation call: inactive: 0

Additional results:

Target	dose-dependent thermal stabilisation call
RER1 (UniProt O15258)	inactive: 0
RBM7 (UniProt Q9Y580)	inactive: 0
RASA3 (UniProt Q14644)	inactive: 0
UniProt Q5TEC6_HUMAN	inactive: 0
RAB33B (UniProt Q9H082)	inactive: 0
RCSD1 (UniProt Q6JBY9)	inactive: 0
RAD21 (UniProt O60216)	inactive: 0
RAPGEF1 (UniProt Q13905)	inactive: 0
RBM25 (UniProt P49756)	inactive: 0
RNF169 (UniProt Q8NCN4)	inactive: 0
RBM39 (UniProt Q14498)	inactive: 0
PTTG1 (UniProt O95997)	inactive: 0
RBM10	inactive: 0
PTPRF (UniProt P10586)	inactive: 0
RHOG (UniProt P84095)	inactive: 0
RELB (UniProt Q01201)	inactive: 0
RCN1 (UniProt Q15293)	inactive: 0
RABGGTA (UniProt Q92696)	inactive: 0
